Test results published in the supplement of paper PMC12024529.
Structures can show the parent of a compound that is named as a salt. Some of the results follow. Part of the spread comes from offsets between plates or batches.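 Wild-type or misfolding-prone missense mutant B-domain-deleted factor VIII, fused to Gaussia luciferase, is stably expressed in HEK293 lines. Each score is (mean triplicate-well luminescence minus DMSO mean) divided by DMSO standard deviation. Hits score at least 2; lower scores could stem from decreased secretion or poorer cell viability.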

These molecules were tested on HEK293 WT BDD-FVIII-Gluc (assay: secreted FVIII-Gluc luciferase Z-score vs DMSO control; higher = more FVIII-Gluc secretion). Details: 5 µM; 24 h.

Row | SMILES | secreted FVIII-Gluc luciferase Z-score
1 | COC(c1ccccc1)(c1ccccc1)[C@H](Oc1nc(C)cc(C)n1)C(=O)O [Ambrisentan] | inactive: 0.507
2 | CC#CCn1c(N2CCC[C@@H](N)C2)nc2c1c(=O)n(Cc1nc(C)c3ccccc3n1)c(=O)n2C [Linagliptin (BI-1356)] | inactive: 1.96
3 | Clc1ccc(C(Cn2ccnc2)OCc2c(Cl)cccc2Cl)c(Cl)c1 (centres undefined) [Isoconazole nitrate (Travogen)] | inactive: -4.93
4 | N=C(N)N/N=C/c1c(Cl)cccc1Cl [Guanabenz acetate] | inactive: -0.268
5 | Cc1ccc(-c2cc(C(F)(F)F)nn2-c2ccc(S(N)(=O)=O)cc2)cc1 [Celecoxib] | inactive: -0.97
6 | C=C1/C(=C\C=C2/CCC[C@]3(C)[C@@H]([C@H](C)/C=C/[C@H](C)C(C)C)CC[C@@H]23)C[C@@H](O)C[C@@H]1O [Doxercalciferol (Hectorol)] | inactive: -5.29
7 | CNCC[C@H](Oc1cccc2ccccc12)c1cccs1 [Duloxetine HCl (Cymbalta)] | inactive: -1.34
8 | Cc1ccc(Cl)c(Nc2ccccc2C(=O)O)c1Cl [Meclofenamate Sodium] | inactive: -0.125
9 | c1ccc2c(CC3=NCCN3)cccc2c1 [Naphazoline hydrochloride (Naphcon)] | inactive: 0.0547
10 | O=c1oc2cc(O)ccc2s1 [Tioxolone] | inactive: -0.915
11 | O=C1CN2Cc3c(ccc(Cl)c3Cl)N=C2N1 [Anagrelide HCl] | inactive: -1.17
12 | CCc1ccc(CCOc2ccc(CC3SC(=O)NC3=O)cc2)nc1 (centres undefined) [Pioglitazone (Actos)] | inactive: -0.124
13 | COc1ccc(CN2CCN(C(c3ccc(F)cc3)c3ccc(F)cc3)CC2)c(OC)c1OC [Lomerizine HCl] | inactive: -1.75
14 | CC1CC(OC(=O)C(O)c2ccccc2)CC(C)(C)C1 (centres undefined) [Cyclandelate] | inactive: 1.14
15 | CCc1c2c(nc3ccc(OC(=O)N4CCC(N5CCCCC5)CC4)cc13)-c1cc3c(c(=O)n1C2)COC(=O)[C@]3(O)CC [Irinotecan HCl Trihydrate (Campto)] | inactive: -4.18
16 | CC(C(=O)O)c1cccc(Oc2ccccc2)c1 (centres undefined) [Fenoprofen calcium hydrate] | inactive: -2.17
17 | Oc1ncnc2[nH]ncc12 [Allopurinol (Zyloprim)] | inactive: -1.76
18 | CC(=O)N[C@@H](CS)C(=O)O [Acetylcysteine] | inactive: -1.31
19 | CC(=O)O[C@H]1C(=O)[C@@]2(C)[C@H]([C@H](OC(=O)c3ccccc3)[C@]3(O)C[C@H](OC(=O)[C@H](O)[C@@H](NC(=O)c4ccccc4)c4ccccc4)C(C)=C1C3(C)C)[C@]1(OC(C)=O)CO[C@@H]1C[C@@H]2O [Paclitaxel (Taxol)] | inactive: -3.05
20 | C[C@@H]1O[C@@H]1P(=O)(O)O [Fosfomycin Tromethamine] | inactive: -0.707

Already shown: entries from further up.
Row | SMILES | secreted FVIII-Gluc luciferase Z-score
16 | CC(C(=O)O)c1cccc(Oc2ccccc2)c1 (centres undefined) [Fenoprofen calcium hydrate] | inactive: -2.17
17 | Oc1ncnc2[nH]ncc12 [Allopurinol (Zyloprim)] | inactive: -1.76

(cont.)

Row | SMILES | secreted FVIII-Gluc luciferase Z-score
21 | CC(=O)OCC(=O)[C@H]1CC[C@H]2[C@@H]3CCC4=CC(=O)CC[C@]4(C)[C@H]3CC[C@]12C [Deoxycorticosterone acetate] | inactive: 0.663
22 | CC[C@H](C)C(=O)O[C@H]1C[C@@H](C)C=C2C=C[C@H](C)[C@H](CC[C@@H]3C[C@@H](O)CC(=O)O3)[C@H]21 [Lovastatin (Mevacor)] | inactive: 1.04
23 | CC(C)(C)c1cc(C(C)(C)C)c(NC(=O)c2c[nH]c3ccccc3c2=O)cc1O [Ivacaftor (VX-770)] | inactive: 1.52
24 | CCCc1cc(=O)[nH]c(=S)[nH]1 [Propylthiouracil] | inactive: -1.04
25 | CS(=O)(=O)CCNCc1ccc(-c2ccc3ncnc(Nc4ccc(OCc5cccc(F)c5)c(Cl)c4)c3c2)o1 [Lapatinib] | inactive: 0.285
26 | Cc1ccc(C(=O)c2ccc(CC(=O)O)n2C)cc1 [Tolmetin Sodium] | inactive: -0.619
27 | CO[C@H]1C[C@@H]2CC[C@@H](C)[C@@](O)(O2)C(=O)C(=O)N2CCCC[C@H]2C(=O)O[C@H]([C@H](C)C[C@@H]2CC[C@@H](OCCO)[C@H](OC)C2)CC(=O)[C@H](C)/C=C(\C)[C@@H](O)[C@@H](OC)C(=O)[C@H](C)C[C@H](C)/C=C/C=C/C=C/1C [Everolimus (RAD001)] | inactive: -1.07
28 | C=C1c2cccc(O)c2C(O)=C2C(=O)[C@]3(O)C(O)=C(C(N)=O)C(=O)[C@@H](N(C)C)[C@@H]3[C@@H](O)[C@H]12 [Methacycline hydrochloride (Physiomycine)] | active: 3.69
29 | COc1cc(NS(=O)(=O)c2ccc(N)cc2)nc(OC)n1 [Sulphadimethoxine] | inactive: -2.07
30 | O=C(OCC(O)CO)c1ccccc1Nc1ccnc2cc(Cl)ccc12 (centres undefined) [Glafenine HCl] | inactive: -0.279
31 | C=C1[C@H](CO)[C@@H](O)C[C@@H]1n1cnc2c(=O)[nH]c(N)nc21 [Entecavir hydrate] | inactive: -1.45
32 | Cc1cnc(C(=O)O)c[n+]1[O-] [Acipimox] | inactive: 1.08
33 | CCCc1nc2c(C)cc(-c3nc4ccccc4n3C)cc2n1Cc1ccc(-c2ccccc2C(=O)O)cc1 [Telmisartan (Micardis)] | inactive: -0.535
34 | CCC[S+]([O-])c1ccc2[nH]c(NC(=O)OC)nc2c1 (centres undefined) [Albendazole Oxide (Ricobendazole)] | inactive: -1.09
35 | NCCc1ccc(O)c(O)c1 [Dopamine hydrochloride (Inotropin)] | inactive: 1.61
36 | C[C@@H](NCCCc1cccc(C(F)(F)F)c1)c1cccc2ccccc12 [AMG-073 HCl (Cinacalcet hydrochloride)] | inactive: 0.506
37 | CC(C)OC(=O)C(C)(C)Oc1ccc(C(=O)c2ccc(Cl)cc2)cc1 [Fenofibrate (Tricor, Trilipix)] | inactive: -3.25
38 | O=C(O)CCCC[C@@H]1SC[C@@H]2NC(=O)N[C@@H]21 [Biotin (Vitamin B7)] | inactive: -0.969
39 | C#C[C@]1(O)CC[C@H]2[C@@H]3CCc4cc(O)ccc4[C@H]3CC[C@@]21C [Ethinyl Estradiol] | inactive: -0.724
